Earlier results in US20060111376A1, “2,4-Diamino quinazoline and pyridopyrimidine ester derivatives as dihydrofolate reductase inhibitors” (priority 2002, published 2006).
Some of these results come from one statement about several compounds together.

Tested on: cellular DHFR (for example rat liver DHFR) and the relevant pathogen DHFR
Conditions: between cellular DHFR (for example rat liver DHFR) and the relevant pathogen DHFR; reference point

For `COc1cc(NCc2ccc3nc(N)nc(N)c3c2C)cc(OC)c1OC` [TMQ, Trimetrexate], which selectivity index is on record?
Its selectivity index is 0.13-0.19.
